PubChem BioAssay AID1259254 | NCATS – 2017

Assay: 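Genome-wide screen for genes that prevent DNA re-replication in cancer cells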 (primary screen)
Cell system: human HCT116 colorectal cancer cells
Reagents: single siRNA against human genes
Duration: 3 days
Measured: 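Imaged Hoechst DNA stain sorts each cell into a cycle phase by DNA amount; per plate, G2 fraction set to 0% for non-targeting and 100% for GMNN siRNA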
Scale: G2 robust z-score and G2 cells, % of GMNN control: higher = more G2 cells, more excess DNA replication; raw share of cells in G2: higher = larger share of cells with G2 DNA content
Rule for the call: 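An siRNA counts as active if its G2 robust z-score lies at least 5 MADs above the screen median; here such calls match roughly 38% of GMNN control or more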
The whole screen tested about 59,000 reagents; shown is a part drawn at random. About 1,550 of all reagents (2.6%) count as active. 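G2 share is only a proxy for re-replication; each gene was hit by three separate siRNAs, and active genes were retested.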 Raw values vary from plate to plate and are shown uncorrected. Reagents against one gene are numbered here. Not given: the amount of reagent.

gene | reagent | G2 robust z-score | G2 cells, % of GMNN control | raw share of cells in G2 (%) | Call
KCTD21 | 1 | -0.589 | -1.18 | 3.11 | inactive
KCTD21 | 2 | 0.274 | 4.9 | 4.78 | inactive
KCTD21 | 3 | 0.0622 | 3.41 | 4.35 | inactive
METAP1D | 1 | -0.733 | -2.19 | 4.67 | inactive
METAP1D | 2 | 2.41 | 19.9 | 11 | inactive
METAP1D | 3 | 1.43 | 13 | 9.11 | inactive
PATJ | 1 | 0.121 | 3.82 | 5.08 | inactive
PATJ | 2 | -0.972 | -3.87 | 4.95 | inactive
PATJ | 3 | -0.36 | 0.435 | 5.88 | inactive
ANKS6 | 1 | -0.34 | 0.578 | 3.79 | inactive
ANKS6 | 2 | -0.437 | -0.105 | 3.09 | inactive
ANKS6 | 3 | -0.61 | -1.32 | 2.77 | inactive
SP4 | 1 | -0.483 | -0.433 | 4.4 | inactive
SP4 | 2 | 1.14 | 11 | 7.6 | inactive
SP4 | 3 | 1.75 | 15.3 | 10.8 | inactive
TYMP | 1 | 1.98 | 16.9 | 9.67 | inactive
TYMP | 2 | -0.402 | 0.137 | 5.32 | inactive
TYMP | 3 | 1.82 | 15.8 | 11 | inactive
NFAT5 | 1 | -0.538 | -0.815 | 5.62 | inactive
NFAT5 | 2 | -0.532 | -0.775 | 3.01 | inactive
NFAT5 | 3 | -0.856 | -3.06 | 2.51 | inactive
FRAT1 | 1 | 2.97 | 23.9 | 16.1 | inactive
FRAT1 | 2 | 0.748 | 8.23 | 7.38 | inactive
FRAT1 | 3 | 0.836 | 8.85 | 6.63 | inactive
TRAM1 | 1 | 1.53 | 13.7 | 9.57 | inactive
TRAM1 | 2 | -0.126 | 2.08 | 4.84 | inactive
TRAM1 | 3 | -0.276 | 1.03 | 3.66 | inactive
TTC5 | 1 | -0.542 | -0.846 | 4.16 | inactive
TTC5 | 2 | 8.22 | 60.8 | 31.1 | active
TTC5 | 3 | 1.64 | 14.5 | 12.4 | inactive

Reagents listed so far with an active call, once more:
gene | reagent | G2 robust z-score | G2 cells, % of GMNN control | raw share of cells in G2 (%) | Call
TTC5 | 2 | 8.22 | 60.8 | 31.1 | active
